Laboratory results as given in article PMC5605700.
Results are given in words; binding and its absence hold for the method and conditions named. In cells and extracts the contact can be indirect. Some binding calls cover weakened binding; strength is not graded here.

Chains of the proteins cited; added tags and fusions are not shown.
UniProt Q9CQY1: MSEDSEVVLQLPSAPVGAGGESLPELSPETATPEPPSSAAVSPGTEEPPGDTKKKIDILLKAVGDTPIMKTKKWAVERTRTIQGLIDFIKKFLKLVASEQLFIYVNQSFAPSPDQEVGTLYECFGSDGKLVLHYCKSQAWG
UniProt O94817: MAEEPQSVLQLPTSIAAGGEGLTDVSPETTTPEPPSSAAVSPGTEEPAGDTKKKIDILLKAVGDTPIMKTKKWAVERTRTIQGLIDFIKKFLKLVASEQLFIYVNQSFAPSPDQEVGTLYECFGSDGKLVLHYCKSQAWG

Tests used:
[1] = molecular target: T1, Tecpr1 (tectonin β-propeller repeat-containing protein 1) (mouse (endogenous in TM4)) (UniProt Q80VP0); assay: co-IP; immunoprecipitation on TM4 Sertoli cells with antibodies against Dock180, LC3B, Atg12 or Tecpr1 (rabbit IgG and beads alone as controls), blots probed with LC3B or Dock180 antibodies
T1 sequence: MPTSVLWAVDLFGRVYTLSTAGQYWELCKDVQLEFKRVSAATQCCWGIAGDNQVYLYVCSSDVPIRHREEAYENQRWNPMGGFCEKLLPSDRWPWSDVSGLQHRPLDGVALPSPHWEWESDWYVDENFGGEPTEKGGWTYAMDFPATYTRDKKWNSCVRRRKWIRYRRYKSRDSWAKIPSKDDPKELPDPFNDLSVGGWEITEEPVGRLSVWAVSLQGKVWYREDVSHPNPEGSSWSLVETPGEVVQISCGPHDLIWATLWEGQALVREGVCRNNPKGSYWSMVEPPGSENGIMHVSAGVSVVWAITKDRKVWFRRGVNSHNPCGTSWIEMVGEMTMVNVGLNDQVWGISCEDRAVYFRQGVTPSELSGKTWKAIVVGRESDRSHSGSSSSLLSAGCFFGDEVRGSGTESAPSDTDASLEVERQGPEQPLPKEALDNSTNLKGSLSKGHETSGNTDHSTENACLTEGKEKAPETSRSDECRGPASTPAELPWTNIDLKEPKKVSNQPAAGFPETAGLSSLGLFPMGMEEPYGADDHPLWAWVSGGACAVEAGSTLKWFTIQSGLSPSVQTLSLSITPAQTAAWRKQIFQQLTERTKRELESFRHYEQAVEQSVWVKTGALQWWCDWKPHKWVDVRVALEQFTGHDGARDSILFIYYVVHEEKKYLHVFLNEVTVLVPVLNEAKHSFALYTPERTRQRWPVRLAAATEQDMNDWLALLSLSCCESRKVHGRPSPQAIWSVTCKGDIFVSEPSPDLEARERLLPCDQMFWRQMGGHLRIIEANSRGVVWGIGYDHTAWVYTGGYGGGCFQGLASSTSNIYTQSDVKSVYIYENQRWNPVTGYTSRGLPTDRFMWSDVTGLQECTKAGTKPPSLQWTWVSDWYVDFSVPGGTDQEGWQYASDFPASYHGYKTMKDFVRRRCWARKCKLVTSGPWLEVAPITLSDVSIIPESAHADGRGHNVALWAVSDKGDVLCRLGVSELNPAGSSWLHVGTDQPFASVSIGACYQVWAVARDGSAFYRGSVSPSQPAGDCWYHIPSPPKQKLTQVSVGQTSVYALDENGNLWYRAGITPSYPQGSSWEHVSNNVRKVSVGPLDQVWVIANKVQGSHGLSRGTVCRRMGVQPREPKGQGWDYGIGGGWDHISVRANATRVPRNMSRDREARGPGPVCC

[2] = molecular target: Atg12 (autophagy related 12) (mouse (endogenous in TM4)) (UniProt Q9CQY1); assay: as above
[3] = molecular target: T2, Tecpr1 (tectonin β-propeller repeat-containing protein 1) (human (endogenous in HEK293)) (UniProt Q7Z6L1); assay: co-IP; immunoprecipitation on HEK293 cells with antibodies against Atg12 or Tecpr1 (rabbit IgG as control), blots probed with Dock180 antibody
T2 sequence: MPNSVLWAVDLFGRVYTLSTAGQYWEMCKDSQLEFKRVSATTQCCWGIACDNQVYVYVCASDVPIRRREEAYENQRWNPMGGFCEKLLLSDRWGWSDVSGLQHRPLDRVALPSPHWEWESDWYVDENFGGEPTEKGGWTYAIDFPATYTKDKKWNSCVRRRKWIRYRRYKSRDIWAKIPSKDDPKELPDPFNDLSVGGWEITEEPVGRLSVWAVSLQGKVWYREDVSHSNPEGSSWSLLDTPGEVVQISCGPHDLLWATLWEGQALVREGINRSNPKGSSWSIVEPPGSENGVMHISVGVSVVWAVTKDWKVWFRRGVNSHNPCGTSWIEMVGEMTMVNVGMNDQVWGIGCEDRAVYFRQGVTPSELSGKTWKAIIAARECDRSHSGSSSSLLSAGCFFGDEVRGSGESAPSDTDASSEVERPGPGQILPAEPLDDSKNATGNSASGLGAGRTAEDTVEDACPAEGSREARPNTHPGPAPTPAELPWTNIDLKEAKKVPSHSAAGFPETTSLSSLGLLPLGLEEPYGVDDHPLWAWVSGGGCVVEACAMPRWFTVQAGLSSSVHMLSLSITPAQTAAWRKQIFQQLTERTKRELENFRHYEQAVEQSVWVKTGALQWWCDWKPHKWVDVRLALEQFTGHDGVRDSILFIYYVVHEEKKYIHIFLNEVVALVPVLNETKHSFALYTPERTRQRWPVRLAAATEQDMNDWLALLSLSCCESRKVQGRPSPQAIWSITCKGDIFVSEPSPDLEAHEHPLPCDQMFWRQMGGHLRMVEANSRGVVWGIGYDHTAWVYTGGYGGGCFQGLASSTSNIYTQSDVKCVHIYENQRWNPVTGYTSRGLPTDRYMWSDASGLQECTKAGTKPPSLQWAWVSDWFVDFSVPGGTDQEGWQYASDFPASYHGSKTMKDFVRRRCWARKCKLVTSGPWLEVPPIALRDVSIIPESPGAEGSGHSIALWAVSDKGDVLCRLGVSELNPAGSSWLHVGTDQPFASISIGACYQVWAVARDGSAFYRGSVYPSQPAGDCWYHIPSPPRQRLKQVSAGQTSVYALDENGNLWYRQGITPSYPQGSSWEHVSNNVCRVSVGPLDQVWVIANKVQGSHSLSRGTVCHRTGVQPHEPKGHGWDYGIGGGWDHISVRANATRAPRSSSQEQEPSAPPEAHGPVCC

[4] = molecular target: Atg12 (autophagy related 12) (human (endogenous in HEK293)) (UniProt O94817); assay: as above

Substance	binding [1]	binding [2]	binding [3]	binding [4]
Dock180 (dedicator of cytokinesis 1) (from UniProt Q8BUR4 1-1865)	binds	binds		
Dock180 (dedicator of cytokinesis 1) (from UniProt Q14185 1-1865)			binds	binds
